According to PubChem BioAssay AID2685 (National Center for Advancing Translational Sciences (NCATS), 2010):
This is one part of the list. The main result of the screen is listed elsewhere. These columns were measured beside it and carry no call. Compounds called inactive in the main read-out are mostly missing here. Potencies come from curve fits of mixed quality, noted in brackets. Where a SMILES comes first, the peptide text is derived from it. [ ]: non-standard residue; d: D form. The star is where a group is joined. ξ: configuration not given here. ξArg(NO2) = N=C(NCCCC(N)C(=O)O)N[N+](=O)[O-]; Bz = O=C(c1ccccc1)*

Test: qHTS Assay for Lipid Storage Modulators in Drosophila S3 Cells;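 for cell number change: cells counted by Cell Tracker Red CMTPX staining in the red channel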
Settings: BODIPY lipid droplet fluorescence, 18-24 h; for cell number change: measured here: cell count max response, cells fed with added oleic acid
Procedure, shortened: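 Laser-scanning cytometry quantifies lipid droplet accumulation (500–530 nm total intensity; droplet/cell object ratio) in oleic acid-fed (400 uM added) Drosophila S3 cells treated with a concentration series. 20 uM Triacsin C defined 100% inhibition.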

[1] = measured here: lipid fluorescence (Fed channel) AC50, cells fed with added oleic acid
[2] = measured here: cell number channel AC50, cells fed with added oleic acid

Row | SMILES | AC50 [1] | cell number change | AC50 [2]
1 | O=C1NC(=O)C(Cc2cccs2)C(=O)N1 | 20.6 µM [falling, partial curve] | – | –
2 | CC1CC(C)CN(CC(=O)c2ccc(OC(F)F)cc2)C1 (centres undefined) | 5.8 µM [falling, partial curve] | -24.2% | –
3 | CC(Cc1ccccc1)NCCC(c1ccccc1)c1ccccc1 (centres undefined) | – | -74.7% | 29.1 µM [falling, single point]
4 | N#Cc1c(Cl)nc(Cl)c2c1CCN(Cc1ccccc1)C2 | 29.1 µM [falling, single point] | -9.41% | –
5 | NCCc1c[nH]c2ccccc12 | 7.31 µM [rising, partial curve, poor fit] | 5.03% | –
6 | CC/C(=C\C=C\[C@@H]1C=C[C@@H]2CCC[C@H]2[C@@H]1C(=O)c1ccc[nH]1)[C@@H]1O[C@@H]([C@@H](C)C(=O)O)CC[C@@H]1C | 14.6 µM [falling, partial curve] | -67.9% | 16.4 µM [falling, single point]
7 | FC(F)(F)c1ccccc1CNCCc1c[nH]c2ccccc12 | 16.4 µM [falling, partial curve, poor fit] | -46.9% | 7.31 µM [falling, partial curve, poor fit]
8 | Cc1nc2ccccc2c(=O)n1-c1cccnc1 | – | 7.93% | 0.13 µM [falling, full curve, poor fit]
9 | CCC(N)Cc1c[nH]c2ccccc12 (centres undefined) | 1.46 µM [rising, partial curve, poor fit] | 5.72% | –
10 | CCCOC(=O)c1ccccc1C(=O)OCCC | – | -33.2% | 0.00517 µM [falling, full curve, poor fit]
11 | COCCNC(=O)c1c(N)n(Cc2ccco2)c2nc3ccccc3nc12 | – | 1.89% | –
12 | COc1cc(/C=C2/C(=O)NC(=O)N(c3ccc(C)cc3)C2=O)cc(OC)c1OC | – | 24.3% | –
13 | COc1ccc(NC(=O)C2CCCN(S(=O)(=O)c3ccc4c(c3)oc(=O)n4C)C2)cc1OC (centres undefined) | 0.116 µM [rising, full curve, poor fit] | – | –
14 | CN1CCC(c2c[nH]c3ccccc23)C1 (centres undefined) | 32.6 µM [rising, single point] | -0.173% | –
15 | CCc1ccccc1N1C(=O)CC(=O)NC1=O | 25.9 µM [falling, partial curve] | -18.6% | –
16 | Cc1c(C(=O)Nc2ccccc2)c2cc(O)ccc2n1Cc1ccccc1 | 29.1 µM [falling, single point] | -1.05% | –
17 | N/C(=N\[N+](=O)[O-])NCCCC(NC(=O)CNC(=O)c1ccccc1)C(=O)O (centres undefined) (Bz-Gly-[ξArg(NO2)]-OH) | 0.184 µM [falling, full curve, poor fit] | -8.1% | –
18 | C[n+]1c(-c2ccccc2)cc(-c2ccc(Cl)cc2)cc1-c1ccccc1 | – | -156% | –
19 | CC(C)Cc1[nH]c(=O)c(C#N)c2c1CCC2 | 3.66 µM [falling, single point] | -8.27% | –

Row | SMILES | AC50 [1] | cell number change | AC50 [2]
20 | CC(NCc1ccc(Cl)c(Cl)c1)C(O)c1ccccc1 (centres undefined) | 29.1 µM [falling, single point] | -51.5% | 16.4 µM [falling, partial curve]
21 | CCc1ccc(OCC(=O)N2CCN(Cc3ccc4c(c3)OCO4)CC2)cc1 | 0.116 µM [rising, full curve, poor fit] | 23% | –
22 | C=CCn1c(O)c(/C=C2/C=c3ccccc3=N2)c(=O)[nH]c1=S | – | 27% | –
23 | Cn1cc(C(=O)NP(=O)(N2CCOCC2)N2CCOCC2)c2ccccc21 | 18.4 µM [falling, partial curve, poor fit] | -14.5% | –
24 | COC(=O)C1=C(c2ccc(OC(F)(F)F)cc2)C[C@@H]2CC[C@H]1N2C(=O)NCCCOC(C)C | 2.06 µM [rising, partial curve] | -6.81% | –
25 | COc1cccc(NP(=O)(Oc2ccc(Cl)cc2)Oc2ccc(Cl)cc2)c1 | 29.1 µM [rising, single point] | 32.1% | 1.64 µM [falling, partial curve]
26 | CN(C)c1ccc(/C=C/C=C/c2sc3ccccc3[n+]2C)cc1 | – | -1.12% | –
27 | Cc1ccc(N2C(=O)NC(=O)/C(=C/c3ccoc3)C2=O)cc1 | 1.3 µM [falling, partial curve] | -30.6% | 0.0058 µM [falling, full curve, poor fit]
28 | COc1ccc(CC2(CCc3ccncc3)C(=O)NC(=O)NC2=O)cc1 | – | 15.3% | –
29 | Cc1ccc(-c2cc(-c3ccc(C)cc3)[n+](-c3ccc(C(=O)[O-])cc3)c(-c3ccc(C)cc3)c2)cc1 | 2.31 µM [falling, partial curve, poor fit] | -32.7% | 14.6 µM [falling, partial curve, poor fit]
30 | CCn1ccnc1CN1CCCC(C(=O)c2cc(F)ccc2OC)C1 (centres undefined) | 32.6 µM [falling, single point] | -14.5% | –
31 | O=c1[nH]c(=O)n(Cc2ccc(F)cc2)c(O)c1C=NCCCn1ccnc1 | 0.461 µM [rising, single point] | – | –
32 | CN1C(=O)C(=Cc2ccccc2OCc2ccc(C(=O)O)cc2)C(=O)N(C)C1=O | 0.461 µM [rising, partial curve, poor fit] | 92% | 0.731 µM [rising, single point]
33 | Cc1ccc(C(=O)C2CN(C)CC2C(=O)c2ccc(C)cc2)cc1 (centres undefined) | 0.731 µM [falling, partial curve, poor fit] | -15.8% | 0.731 µM [falling, single point]
34 | CC(N=Cc1c(O)[nH]c(=O)[nH]c1=O)c1ccccc1 (centres undefined) | 1.46 µM [falling, full curve] | 10.9% | –
35 | c1ccc(CNc2c3c(nc4ccccc24)CCC3)cc1 | 5.8 µM [falling, full curve, poor fit] | -53.5% | 9.2 µM [falling, partial curve]
36 | COc1ccccc1OCC#CCN1CCCC(C)C1 (centres undefined) | 23.1 µM [falling, single point] | 15% | –
37 | CCNc1nc2[nH]c(=O)c3c(c2s1)OC(N)=C(C#N)C3c1cccs1 (centres undefined) | 4.11 µM [rising, single point] | -22.3% | –
38 | CN(C(=O)c1ccc(Cl)nc1)C1(c2ccccc2Cl)CCCCC1=O (centres undefined) | – | 17.1% | –

Row | SMILES | AC50 [1] | cell number change | AC50 [2]
39 | CC(C)CCn1c(=O)c(C(=O)NCc2ccco2)c(O)c2ccccc21 | 2.31 µM [rising, single point] | -3.74% | –
40 | CCOc1ccc(-c2cc(C)[n+](CCN(CC)CC)c(-c3ccc(OCC)cc3)c2)cc1 | 9.2 µM [falling, partial curve, poor fit] | -59.6% | 8.2 µM [falling, partial curve]
41 | COC(=O)C1=C(N)Oc2c(c(=O)oc3ccccc23)C1c1cccnc1 (centres undefined) | 0.092 µM [rising, full curve, poor fit] | 54.6% | 2.31 µM [rising, partial curve]
42 | CC(C)N1OC2CC1c1nc3ccccc3n1C2 (centres undefined) | – | 22.8% | 0.0731 µM [rising, full curve, poor fit]
43 | COc1ccc(Oc2cc(NC(=O)c3nn(C)cc3[N+](=O)[O-])cc([N+](=O)[O-])c2)cc1 | – | 8.77% | –
44 | CN(C)C(Cc1ccccc1)C(=O)c1cccs1 (centres undefined) | 6.51 µM [rising, single point] | – | –
45 | COc1ccccc1N1C(=O)NC(=O)C(CCc2ccncc2)(CCc2ccncc2)C1=O | 6.51 µM [rising, single point] | 53.5% | 29.1 µM [rising, single point]
46 | CN1CC(C(=O)c2ccc(F)cc2)C(c2ccc(F)cc2)C1 (centres undefined) | 5.8 µM [rising, single point] | 18% | –
47 | Cc1cccn2c(=O)c3c(nc12)N1CCc2ccccc2C1C1(C3)C(=O)NC(=O)N(C)C1=O (centres undefined) | – | 11.5% | 0.058 µM [rising, full curve, poor fit]
48 | C=CCn1c(O)c(C(C)=Nc2cc(OC)ccc2OC)c(=O)[nH]c1=O | 0.184 µM [rising, full curve, poor fit] | -6.21% | –
49 | O=C(c1cc(F)ccc1F)C1CCCN(Cc2cc(Cl)ccc2O)C1 (centres undefined) | – | 6.2% | –
50 | O=[N+]([O-])c1ccc(N2CCOCC2)c2cccnc12 | 6.51 µM [rising, single point] | -6.15% | 1.64 µM [rising, partial curve]
51 | CCOC(=O)c1c(C)n(Cc2ccco2)c2c1cc(O)c1ccccc12 | 5.17 µM [rising, partial curve] | -15.6% | –
52 | CCOP(=O)(OCC)C(NC(=O)c1ccccc1C)C(Cl)(Cl)Cl (centres undefined) | 5.8 µM [falling, partial curve, poor fit] | -25.7% | –
53 | COc1ccccc1C1C([N+](=O)[O-])=C(N)Oc2c1c(=O)oc1ccccc21 (centres undefined) | 0.461 µM [falling, full curve] | – | –
54 | CCCNC(=O)N1[C@H]2CC[C@@H]1C(C(=O)OC)=C(c1ccc(OC)c(OC)c1)C2 | 23.1 µM [rising, single point] | -7.8% | –
55 | COC(=O)C1=C(c2ccc(Cl)c(C(F)(F)F)c2)C[C@@H]2CC[C@H]1N2C(=O)NCCCOC(C)C | 6.51 µM [rising, single point] | -6.98% | –
56 | O=C1NC(=O)N(Cc2ccccc2)C(=O)/C1=C/C=C/c1ccco1 | 23.1 µM [falling, single point] | -50% | 29.1 µM [falling, single point]
57 | Cn1c(=O)c2c(ncn2CCCl)n(C)c1=O | 0.517 µM [rising, partial curve, poor fit] | 5.02% | –

Compounds shown so far that contain a COOH group, in the order listed:
Row | SMILES | AC50 [1] | cell number change | AC50 [2]
6 | CC/C(=C\C=C\[C@@H]1C=C[C@@H]2CCC[C@H]2[C@@H]1C(=O)c1ccc[nH]1)[C@@H]1O[C@@H]([C@@H](C)C(=O)O)CC[C@@H]1C | 14.6 µM [falling, partial curve] | -67.9% | 16.4 µM [falling, single point]
17 | N/C(=N\[N+](=O)[O-])NCCCC(NC(=O)CNC(=O)c1ccccc1)C(=O)O (centres undefined) (Bz-Gly-[ξArg(NO2)]-OH) | 0.184 µM [falling, full curve, poor fit] | -8.1% | –
32 | CN1C(=O)C(=Cc2ccccc2OCc2ccc(C(=O)O)cc2)C(=O)N(C)C1=O | 0.461 µM [rising, partial curve, poor fit] | 92% | 0.731 µM [rising, single point]
